Binding data for 2 molecules are collected here from paper PMC12589655.

Protein sequences, listed by entry. Tags and fused reporters are not part of them. Lines headed by an entry give the natural chain unless they say otherwise; changes in a name come on top. Chains listed by the source or under a name are the forms on record and can include a tag or linker. Residues count along the entry.
UniProt P22363: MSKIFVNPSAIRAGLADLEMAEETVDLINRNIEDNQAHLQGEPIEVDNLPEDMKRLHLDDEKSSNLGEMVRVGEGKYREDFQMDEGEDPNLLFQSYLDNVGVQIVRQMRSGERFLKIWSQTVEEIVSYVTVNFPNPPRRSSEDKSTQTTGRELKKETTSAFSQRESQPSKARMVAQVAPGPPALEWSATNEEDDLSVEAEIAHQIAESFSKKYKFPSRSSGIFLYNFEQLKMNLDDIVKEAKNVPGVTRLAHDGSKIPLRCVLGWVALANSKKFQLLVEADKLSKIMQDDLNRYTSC
GFP-P3 (rabies virus CVS-11 phosphoprotein, truncated isoform P3, residues 53-297, fused to GFP): residues 53-297 of P22363

No constants are given. Whether binding was seen depends on the method and setting. In cells and extracts the contact can be indirect. Here binding means that the protein was enriched with, or labelled near, the bait; the list need not be complete.

The target of test [1] is GFP-P3 (rabies virus CVS-11 phosphoprotein, truncated isoform P3, residues 53-297, fused to GFP) (rabies virus, strain CVS-11) (UniProt P22363). Briefly: affinity purification with mass spectrometry.
For test [2], the target named is GFP-P1 (rabies virus CVS-11 phosphoprotein, full-length isoform P1, fused to GFP) (rabies virus, strain CVS-11) (UniProt P22363). Briefly: affinity purification with mass spectrometry.

B1: fibrillarin (FBL) (protein, UniProt P22087 1-321)
chain: MKPGFSPRGGGFGGRGGFGDRGGRGGRGGFGGGRGRGGGFRGRGRGGGGGGGGGGGGGRGGGGFHSGGNRGRGRGGKRGNQSGKNVMVEPHRHEGVFICRGKEDALVTKNLVPGESVYGEKRVSISEGDDKIEYRAWNPFRSKLAAAILGGVDQIHIKPGAKVLYLGAASGTTVSHVSDIVGPDGLVYAVEFSHRSGRDLINLAKKRTNIIPVIEDARHPHKYRMLIAMVDVIFADVAQPDQTRIVALNAHTFLRNGGHFVISIKANCIDSTASAEAVFASEVKKMQQENMKPQEQLTLEPYERDHAVVVGVYRPPPKVKN
Regarding B1, the binding result in test [1] is recorded as “binds”.

B2: RBM14 (protein, UniProt Q96PK6 1-669)
chain: MKIFVGNVDGADTTPEELAALFAPYGTVMSCAVMKQFAFVHMRENAGALRAIEALHGHELRPGRALVVEMSRPRPLNTWKIFVGNVSAACTSQELRSLFERRGRVIECDVVKDYAFVHMEKEADAKAAIAQLNGKEVKGKRINVELSTKGQKKGPGLAVQSGDKTKKPGAGDTAFPGTGGFSATFDYQQAFGNSTGGFDGQARQPTPPFFGRDRSPLRRSPPRASYVAPLTAQPATYRAQPSVSLGAAYRAQPSASLGVGYRTQPMTAQAASYRAQPSVSLGAPYRGQLASPSSQSAAASSLGPYGGAQPSASALSSYGGQAAAASSLNSYGAQGSSLASYGNQPSSYGAQAASSYGVRAAASSYNTQGAASSLGSYGAQAASYGAQSAASSLAYGAQAASYNAQPSASYNAQSAPYAAQQAASYSSQPAAYVAQPATAAAYASQPAAYAAQATTPMAGSYGAQPVVQTQLNSYGAQASMGLSGSYGAQSAAAATGSYGAAAAYGAQPSATLAAPYRTQSSASLAASYAAQQHPQAAASYRGQPGNAYDGAGQPSAAYLSMSQGAVANANSTPPPYERTRLSPPRASYDDPYKKAVAMSKRYGSDRRLAELSDYRRLSESQLSFRRSPTKSSLDYRRLPDAHSDYARYSGSYNDYLRAAQMHSGYQRRM
For the molecule B2, the binding entry in test [2] and in test [1] was “binds” each time.
